Values of other authors, collected in patent publication US20260157986A1, “METHODS OF TREATMENT OF PRIMARY BILIARY CHOLANGITIS” (Ipsen Pharma, priority 2024, published 2026).
For at least one compound, name, drawing or mass did not settle the structure.

Test system: patients with PBC
Conditions: cited from earlier work

SMILES: C[C@H](CCC(=O)O)[C@H]1CC[C@H]2[C@@H]3[C@@H](O)C[C@@H]4C[C@H](O)CC[C@]4(C)[C@H]3CC[C@]12C [UDCA, Ursodeoxycholic acid]
- effect on ALP and bilirubin, histological progression, liver transplant-free survival (first line therapy): improves ALP and bilirubin in blood, delays histological progression of disease and increases liver transplant-free survival
- patients with PBC with inadequate response to UDCA therapy (in vivo): up to 40%
